According to the supplement of paper PMC10849652:
This is one part of the list.

The chains behind the UniProt entries cited, without tags or fusion partners. Where a name states a change or a piece, a line headed by the entry shows the natural chain unless it says otherwise.
UniProt Q9UI95, whole entry, looked up: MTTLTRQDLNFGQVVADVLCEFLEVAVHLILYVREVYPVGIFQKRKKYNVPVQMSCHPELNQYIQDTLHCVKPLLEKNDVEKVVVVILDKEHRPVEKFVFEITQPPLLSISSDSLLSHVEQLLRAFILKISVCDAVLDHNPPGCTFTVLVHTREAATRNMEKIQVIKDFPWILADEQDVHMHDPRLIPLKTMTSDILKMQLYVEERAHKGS
UniProt P51884: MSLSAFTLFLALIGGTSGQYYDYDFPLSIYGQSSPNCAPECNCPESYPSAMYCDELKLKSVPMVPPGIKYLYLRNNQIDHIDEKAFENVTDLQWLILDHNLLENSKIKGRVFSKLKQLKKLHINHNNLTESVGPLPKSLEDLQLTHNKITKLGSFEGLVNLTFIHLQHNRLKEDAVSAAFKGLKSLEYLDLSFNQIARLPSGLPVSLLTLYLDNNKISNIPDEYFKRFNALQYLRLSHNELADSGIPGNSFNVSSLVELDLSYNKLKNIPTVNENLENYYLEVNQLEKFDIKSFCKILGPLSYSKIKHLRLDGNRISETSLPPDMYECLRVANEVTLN
UniProt P27816: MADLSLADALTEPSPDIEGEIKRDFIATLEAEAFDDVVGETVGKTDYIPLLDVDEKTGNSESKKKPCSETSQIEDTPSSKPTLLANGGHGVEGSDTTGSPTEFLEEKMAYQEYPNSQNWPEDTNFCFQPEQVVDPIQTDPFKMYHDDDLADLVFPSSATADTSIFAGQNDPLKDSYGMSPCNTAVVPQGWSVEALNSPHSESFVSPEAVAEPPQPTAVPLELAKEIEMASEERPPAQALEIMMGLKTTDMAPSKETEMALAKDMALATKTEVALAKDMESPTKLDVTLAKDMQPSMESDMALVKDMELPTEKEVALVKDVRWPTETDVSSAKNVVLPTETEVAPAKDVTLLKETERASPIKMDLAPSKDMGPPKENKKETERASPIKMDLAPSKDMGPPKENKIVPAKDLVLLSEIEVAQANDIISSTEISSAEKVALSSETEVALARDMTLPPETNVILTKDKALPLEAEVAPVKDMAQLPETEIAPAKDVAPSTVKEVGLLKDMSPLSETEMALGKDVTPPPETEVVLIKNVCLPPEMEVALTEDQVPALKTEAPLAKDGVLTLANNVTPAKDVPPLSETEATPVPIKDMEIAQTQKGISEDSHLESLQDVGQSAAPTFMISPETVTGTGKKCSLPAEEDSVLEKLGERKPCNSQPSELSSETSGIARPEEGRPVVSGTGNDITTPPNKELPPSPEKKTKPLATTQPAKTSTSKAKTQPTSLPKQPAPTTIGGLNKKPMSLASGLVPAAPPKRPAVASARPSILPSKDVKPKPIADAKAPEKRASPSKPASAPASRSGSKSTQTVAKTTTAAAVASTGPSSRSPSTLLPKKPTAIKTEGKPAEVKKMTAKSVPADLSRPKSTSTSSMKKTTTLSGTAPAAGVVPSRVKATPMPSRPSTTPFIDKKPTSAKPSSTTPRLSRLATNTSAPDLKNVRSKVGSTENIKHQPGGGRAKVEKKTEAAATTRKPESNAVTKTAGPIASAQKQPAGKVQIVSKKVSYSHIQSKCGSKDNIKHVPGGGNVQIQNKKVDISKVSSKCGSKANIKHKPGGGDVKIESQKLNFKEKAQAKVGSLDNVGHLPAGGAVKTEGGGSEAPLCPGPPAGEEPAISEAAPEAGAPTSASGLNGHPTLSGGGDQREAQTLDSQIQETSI
UniProt O94822: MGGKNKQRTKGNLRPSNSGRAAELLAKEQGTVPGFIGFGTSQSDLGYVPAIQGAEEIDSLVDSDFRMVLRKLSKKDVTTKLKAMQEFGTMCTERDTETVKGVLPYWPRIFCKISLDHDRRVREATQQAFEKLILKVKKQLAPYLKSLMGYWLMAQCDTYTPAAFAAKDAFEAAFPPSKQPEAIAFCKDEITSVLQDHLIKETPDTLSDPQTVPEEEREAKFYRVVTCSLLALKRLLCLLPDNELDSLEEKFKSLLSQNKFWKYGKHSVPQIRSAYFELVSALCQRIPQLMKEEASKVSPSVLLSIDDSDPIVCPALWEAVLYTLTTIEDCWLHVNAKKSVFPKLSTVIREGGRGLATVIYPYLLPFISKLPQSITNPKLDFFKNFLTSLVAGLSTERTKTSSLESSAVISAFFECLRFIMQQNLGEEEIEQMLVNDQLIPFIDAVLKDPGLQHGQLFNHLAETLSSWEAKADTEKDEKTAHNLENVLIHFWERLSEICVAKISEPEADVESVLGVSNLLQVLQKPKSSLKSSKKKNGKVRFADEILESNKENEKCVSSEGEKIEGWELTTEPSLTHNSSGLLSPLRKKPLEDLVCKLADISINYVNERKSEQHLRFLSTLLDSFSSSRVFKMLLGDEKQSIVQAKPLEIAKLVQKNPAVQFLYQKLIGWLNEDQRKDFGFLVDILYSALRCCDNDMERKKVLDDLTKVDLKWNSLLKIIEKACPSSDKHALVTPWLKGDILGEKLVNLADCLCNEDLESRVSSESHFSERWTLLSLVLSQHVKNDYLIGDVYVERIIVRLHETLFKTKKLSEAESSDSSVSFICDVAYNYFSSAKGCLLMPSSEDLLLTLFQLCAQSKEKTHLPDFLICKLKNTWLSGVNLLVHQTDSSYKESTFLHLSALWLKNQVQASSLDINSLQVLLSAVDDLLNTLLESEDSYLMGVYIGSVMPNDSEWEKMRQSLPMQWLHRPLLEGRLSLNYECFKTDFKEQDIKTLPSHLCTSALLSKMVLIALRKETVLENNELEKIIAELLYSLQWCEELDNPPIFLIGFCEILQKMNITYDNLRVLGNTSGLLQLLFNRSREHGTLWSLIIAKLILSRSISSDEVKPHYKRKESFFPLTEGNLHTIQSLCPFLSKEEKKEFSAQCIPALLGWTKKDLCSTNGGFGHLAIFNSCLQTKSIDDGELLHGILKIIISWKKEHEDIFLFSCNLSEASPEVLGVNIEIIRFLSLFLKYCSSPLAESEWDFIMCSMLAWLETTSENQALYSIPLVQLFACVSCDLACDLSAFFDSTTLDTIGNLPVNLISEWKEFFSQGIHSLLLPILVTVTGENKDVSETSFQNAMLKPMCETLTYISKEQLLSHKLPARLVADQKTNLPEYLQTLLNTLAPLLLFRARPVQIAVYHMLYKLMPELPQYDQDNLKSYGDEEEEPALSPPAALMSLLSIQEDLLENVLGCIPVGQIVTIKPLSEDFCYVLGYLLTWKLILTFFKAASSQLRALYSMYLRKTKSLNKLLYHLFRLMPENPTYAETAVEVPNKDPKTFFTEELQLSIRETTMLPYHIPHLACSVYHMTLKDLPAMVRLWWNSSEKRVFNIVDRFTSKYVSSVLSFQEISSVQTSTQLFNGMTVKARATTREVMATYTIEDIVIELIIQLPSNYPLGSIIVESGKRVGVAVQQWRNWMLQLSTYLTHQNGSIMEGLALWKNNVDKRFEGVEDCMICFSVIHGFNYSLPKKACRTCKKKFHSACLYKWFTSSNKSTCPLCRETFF
UniProt Q9Y4Y9: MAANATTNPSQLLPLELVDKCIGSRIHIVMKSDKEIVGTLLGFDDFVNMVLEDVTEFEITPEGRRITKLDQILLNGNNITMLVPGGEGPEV
UniProt Q9ULX9: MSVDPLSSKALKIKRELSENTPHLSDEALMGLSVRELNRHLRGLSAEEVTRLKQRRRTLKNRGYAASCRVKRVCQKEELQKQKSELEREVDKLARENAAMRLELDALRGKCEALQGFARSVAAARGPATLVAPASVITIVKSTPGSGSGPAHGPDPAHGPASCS
UniProt O95819: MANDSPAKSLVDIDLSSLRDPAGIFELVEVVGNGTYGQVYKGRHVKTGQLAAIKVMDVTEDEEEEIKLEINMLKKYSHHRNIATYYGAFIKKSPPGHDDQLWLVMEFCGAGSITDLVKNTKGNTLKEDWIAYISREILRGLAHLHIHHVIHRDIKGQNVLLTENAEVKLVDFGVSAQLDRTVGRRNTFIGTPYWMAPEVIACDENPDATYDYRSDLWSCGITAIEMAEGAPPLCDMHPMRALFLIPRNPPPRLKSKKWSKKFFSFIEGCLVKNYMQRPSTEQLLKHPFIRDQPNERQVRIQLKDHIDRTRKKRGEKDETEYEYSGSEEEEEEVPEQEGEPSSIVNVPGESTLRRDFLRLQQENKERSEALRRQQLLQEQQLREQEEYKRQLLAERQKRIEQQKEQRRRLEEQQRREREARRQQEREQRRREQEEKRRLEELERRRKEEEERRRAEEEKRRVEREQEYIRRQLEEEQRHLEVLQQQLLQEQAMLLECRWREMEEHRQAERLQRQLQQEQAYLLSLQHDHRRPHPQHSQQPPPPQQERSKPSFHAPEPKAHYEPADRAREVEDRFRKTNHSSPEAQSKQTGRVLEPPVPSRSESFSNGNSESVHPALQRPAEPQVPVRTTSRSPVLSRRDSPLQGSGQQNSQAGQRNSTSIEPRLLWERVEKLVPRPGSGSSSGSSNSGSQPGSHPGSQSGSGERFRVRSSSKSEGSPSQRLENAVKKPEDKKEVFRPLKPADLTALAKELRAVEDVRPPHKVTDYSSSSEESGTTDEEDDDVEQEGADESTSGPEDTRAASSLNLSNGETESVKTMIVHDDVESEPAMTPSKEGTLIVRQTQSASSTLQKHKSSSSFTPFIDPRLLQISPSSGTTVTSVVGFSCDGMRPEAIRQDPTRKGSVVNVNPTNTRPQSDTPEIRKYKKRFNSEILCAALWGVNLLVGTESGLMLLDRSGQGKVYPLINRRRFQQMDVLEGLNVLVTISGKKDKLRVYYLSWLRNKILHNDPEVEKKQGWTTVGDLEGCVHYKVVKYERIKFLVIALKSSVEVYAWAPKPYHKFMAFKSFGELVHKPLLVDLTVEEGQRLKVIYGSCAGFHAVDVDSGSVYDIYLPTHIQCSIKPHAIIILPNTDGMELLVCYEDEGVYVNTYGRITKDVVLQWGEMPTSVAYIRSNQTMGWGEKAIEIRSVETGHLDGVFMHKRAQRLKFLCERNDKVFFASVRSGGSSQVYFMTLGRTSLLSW
UniProt Q86UD3: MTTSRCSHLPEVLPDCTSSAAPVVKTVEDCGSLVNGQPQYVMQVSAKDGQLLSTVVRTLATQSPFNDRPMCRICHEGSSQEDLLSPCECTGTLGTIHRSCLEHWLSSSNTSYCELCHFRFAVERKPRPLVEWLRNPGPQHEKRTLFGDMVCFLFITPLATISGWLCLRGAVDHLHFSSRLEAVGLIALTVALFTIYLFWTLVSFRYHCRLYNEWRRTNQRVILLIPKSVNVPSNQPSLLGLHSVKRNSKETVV
UniProt P45983: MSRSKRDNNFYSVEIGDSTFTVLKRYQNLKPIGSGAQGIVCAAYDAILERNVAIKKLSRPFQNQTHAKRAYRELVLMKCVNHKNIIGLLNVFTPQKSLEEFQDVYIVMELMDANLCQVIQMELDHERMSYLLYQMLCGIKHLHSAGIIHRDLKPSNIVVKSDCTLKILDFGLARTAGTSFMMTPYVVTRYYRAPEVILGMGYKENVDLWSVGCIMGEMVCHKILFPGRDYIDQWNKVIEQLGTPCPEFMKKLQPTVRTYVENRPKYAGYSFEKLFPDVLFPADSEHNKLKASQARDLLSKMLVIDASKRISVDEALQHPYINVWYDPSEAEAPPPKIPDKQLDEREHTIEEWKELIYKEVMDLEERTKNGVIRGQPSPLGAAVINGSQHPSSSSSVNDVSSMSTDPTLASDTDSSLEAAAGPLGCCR
UniProt Q12851: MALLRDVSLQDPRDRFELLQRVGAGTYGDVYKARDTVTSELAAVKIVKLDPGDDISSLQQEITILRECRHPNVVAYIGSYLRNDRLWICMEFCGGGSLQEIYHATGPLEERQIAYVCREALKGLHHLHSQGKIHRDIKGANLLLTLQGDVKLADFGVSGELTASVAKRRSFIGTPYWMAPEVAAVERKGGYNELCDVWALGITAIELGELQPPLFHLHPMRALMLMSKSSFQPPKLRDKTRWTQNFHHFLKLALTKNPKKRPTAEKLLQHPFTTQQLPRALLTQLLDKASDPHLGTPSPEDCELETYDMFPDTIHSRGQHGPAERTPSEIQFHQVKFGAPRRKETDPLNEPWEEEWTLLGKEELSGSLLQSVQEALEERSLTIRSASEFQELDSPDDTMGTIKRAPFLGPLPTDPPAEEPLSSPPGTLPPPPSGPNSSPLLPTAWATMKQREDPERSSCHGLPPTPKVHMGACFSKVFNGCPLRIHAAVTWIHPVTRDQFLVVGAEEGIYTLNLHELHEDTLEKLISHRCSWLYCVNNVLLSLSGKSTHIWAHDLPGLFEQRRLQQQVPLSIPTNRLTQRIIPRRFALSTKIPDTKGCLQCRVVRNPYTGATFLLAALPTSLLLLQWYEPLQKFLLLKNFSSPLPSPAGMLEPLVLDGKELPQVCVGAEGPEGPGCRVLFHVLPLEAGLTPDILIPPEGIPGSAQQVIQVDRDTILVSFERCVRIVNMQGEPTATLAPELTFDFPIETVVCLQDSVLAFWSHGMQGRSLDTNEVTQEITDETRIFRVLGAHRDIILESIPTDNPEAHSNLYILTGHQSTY

Assays:
Experiment in all cases: log2 fold change, soluble protein after heating vs DMSO (PISA); higher = thermal stabilisation; K562 cells, 10 uM, 30 min; active = over 0.2 and 3.5 SD of the protein, either way, in both replicates (recomputed)
[1] = compound: CC[C@@H]1C(=O)N(C)c2cnc(Nc3ccc(C(=O)NC4CCN(C)CC4)cc3OC)nc2N1C1CCCC1
Summary of the method: (§1)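 Soluble protein was quantified by TMTpro 16plex LC-MS/MS after channel sums were equalised. It was obtained as the supernatant after 21,000xg for 90 min from pooled aliquots of K562 cells (2×10^6 cells/mL, 10 μM compound, 30 min) heated for 3 min across 48°C-58°C and extracted in PBS with 0.5% NP-40 at 4°C. Thermal stability values are relative to control samples and come from duplicates. They are given as log2 fold changes.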

[2] = compound: CC[C@@H]1C(=O)N(C)c2cnc(Nc3ccc(C(=O)N[C@H]4CC[C@H](N5CCN(CC6CC6)CC5)CC4)cc3OC)nc2N1C(C)C [volasertib]
Summary of the method: as §1

[3] = compound: CC[C@H](C)[C@@H](C(=O)N[C@@H]([C@@H](C)O)C(=O)N[C@@H](CC(C)C)C(=O)[C@]1(CO1)C)NC(=O)[C@H]([C@@H](C)CC)N(C)C(=O)C [epoxomicin]
Summary of the method: as §1

[4] = compound: CCn1c(C(=O)N(C2CC2)C2CC2)cc2c3c(ncn3C)c(Nc3cc(C)n(C)n3)nc21
Summary of the method: as §1

[5] = compound: CCn1cc(-c2ccnc3[nH]c(-c4cccc(CN(C)C)c4)cc23)c(-c2ccc(NC(=O)N(C)C)cc2)n1
Summary of the method: as §1

[6] = compound: CN(C)CC(=O)Nc1ccc2[nH]c(=O)c3ccccc3c2c1
Summary of the method: as §1

[7] = compound: CN(CCOC1=CC=C(C=C1)C[C@H]2C(=O)NC(=O)S2)C3=CC=CC=N3 (racemic) [rosiglitazone]
Summary of the method: as §1

[8] = compound: CN1C2=C(C3=C1C(=O)N(N=C3)CC4=CC(=CC=C4)N)SC(=C2)S(=O)C
Summary of the method: as §1

[9] = compound: CN1CCC(CNc2ccc3ncc(-c4cccc(OC(F)(F)F)c4)n3n2)CC1
Summary of the method: as §1

[10] = compound: CN1CCN(CCOc2cc(OC3CCOCC3)c3c(Nc4c(Cl)ccc5c4OCO5)ncnc3c2)CC1 [saracatinib]
Summary of the method: as §1

[11] = compound: CN1CCN(c2nc(C3=C(c4c[nH]c5ccccc45)C(=O)NC3=O)c3ccccc3n2)CC1 [sotrastaurin]
Summary of the method: as §1

[12] = compound: CN1CC[C@H](c2c(O)cc(O)c3c(=O)cc(-c4ccccc4Cl)oc23)[C@H](O)C1 [alvocidib]
Summary of the method: as §1

[13] = compound: CN1CCc2c(c3ccccc3n2Cc2ccc(C(=O)NO)cc2)C1 [Tubastatin A]
Summary of the method: as §1

[14] = compound: CNC(=O)C1=CC=CC=C1NC2=NC(=NC=C2Cl)NC3=C(C=C(C=C3)N4CCOCC4)OC
Summary of the method: as §1

[15] = compound: CNC(=O)c1ccc(Nc2ncc(C(F)(F)F)c(NCc3nccnc3N(C)S(C)(=O)=O)n2)cc1 [defactinib]
Summary of the method: as §1

[16] = compound: CNCc1ccc(-c2[nH]c3cc(F)cc4c3c2CCNC4=O)cc1 [rucaparib]
Summary of the method: as §1

[17] = compound: CNc1nc(-c2ccc3c(N)n[nH]c3c2)cc(N2C[C@@H](C(=O)NC3CCCCC3)CC[C@H]2C)n1
Summary of the method: as §1

[18] = compound: COC(=O)N[C@@H](C)CNc1nccc(-c2cn(C(C)C)nc2-c2cc(Cl)cc(NS(C)(=O)=O)c2F)n1 [encorafenib]
Summary of the method: as §1

[19] = compound: COC(=O)[C@H](CCSC)NC(=O)C1=C(C=C(C=C1)NC[C@H](CS)N)C2=CC=CC=C2
Summary of the method: as §1

[20] = compound: CC[C@H](C)N1C=C(C2=C(C=C(C=C21)C3=CN=C(C=C3)N4CCNCC4)C(=O)NCC5=C(C=C(NC5=O)C)C)C
Summary of the method: as §1

Measured: log2 fold change

MAP3K2 (UniProt Q9Y2U5)
inactive: [1] 0.041 | [2] 0.015 | [3] 0.01 | [4] -0.232 | [5] -0.017 | [6] -0.111 | [7] 0.074 | [8] 0.109 | [9] -0.126 | [10] -0.009 | [11] -0.012 | [12] -0.14 | [13] 0.003 | [14] -0.056 | [15] -0.047 | [16] -0.217 | [17] 0.086 | [18] -0.109 | [19] -0.249

MAD2L2 (UniProt Q9UI95)
inactive: [1] 0.102 | [3] 0.14 | [4] -0.035 | [5] 0.117 | [8] -0.071 | [9] -0.072 | [10] 0.063 | [11] 0.014 | [12] -0.078 | [14] -0.065 | [16] -0.2 | [17] 0.054 | [18] -0.002

LUM (UniProt P51884)
inactive: [1] 0.076 | [2] 0.225 | [20] -0.269 | [3] -0.145 | [6] -0.167 | [8] 0.054 | [10] 0.081 | [11] 0.29 | [13] -0.145 | [14] 0.085 | [15] -0.071 | [16] -0.167 | [17] 0.014 | [18] -0.011 | [19] 0.283

MAP4 isoform 5 (UniProt P27816)
inactive: [1] -0.001 | [2] -0.046 | [20] -0.258 | [3] 0.134 | [11] -0.16 | [14] 0.13 | [16] 0.046 | [18] 0.094

LTN1 isoform 3 (UniProt O94822)
active: [2] -0.459 | [9] -0.498
inactive: [1] -0.16 | [20] 0.079 | [3] -0.012 | [5] -0.019 | [6] 0.043 | [8] 0.06 | [10] -0.016 | [11] -0.114 | [13] 0.196 | [14] 0.01 | [15] -0.114 | [16] 0.158 | [17] -0.012 | [18] 0.047 | [19] -0.057

LUC7L2 (UniProt Q9Y383)
inactive: [1] -0.171 | [20] 0.044 | [3] -0.017 | [5] -0.003 | [6] -0.001 | [8] -0.025 | [9] -0.073 | [10] 0.022 | [11] -0.01 | [13] 0.007 | [16] -0.077 | [17] -0.047 | [18] 0.065 | [19] 0.03
active: [2] -0.345 | [14] -0.304 | [15] -0.267

LSG1 (UniProt Q9H089)
inactive: [1] -0.102 | [2] -0.085 | [3] -0.207 | [4] -0.277 | [6] 0.044 | [8] 0.287 | [10] -0.113 | [12] 0.235 | [13] 0.017 | [14] 0.082 | [15] -0.016 | [16] 0.229 | [17] 0.115 | [18] 0.195 | [19] -0.01

Reprinted at random: 2 records from the list.
LSG1 (UniProt Q9H089)
inactive: [1] -0.102 | [2] -0.085 | [3] -0.207 | [4] -0.277 | [6] 0.044 | [8] 0.287 | [10] -0.113 | [12] 0.235 | [13] 0.017 | [14] 0.082 | [15] -0.016 | [16] 0.229 | [17] 0.115 | [18] 0.195 | [19] -0.01

LUC7L2 (UniProt Q9Y383)
inactive: [1] -0.171 | [20] 0.044 | [3] -0.017 | [5] -0.003 | [6] -0.001 | [8] -0.025 | [9] -0.073 | [10] 0.022 | [11] -0.01 | [13] 0.007 | [16] -0.077 | [17] -0.047 | [18] 0.065 | [19] 0.03
active: [2] -0.345 | [14] -0.304 | [15] -0.267

Remaining list, next part:

LSM5 (UniProt Q9Y4Y9)
inactive: [1] -0.03 | [20] -0.179 | [3] 0.086 | [4] 0.044 | [5] -0.448 | [7] 0.044 | [9] 0.054 | [11] -0.058 | [12] -0.531 | [13] -0.06 | [14] 0.122 | [16] -0.001 | [18] -0.056

MAP2K2 (UniProt P36507)
inactive: [1] -0.12 | [2] 0.084 | [20] 0.077 | [3] 0.044 | [5] -0.06 | [6] 0.022 | [8] -0.056 | [9] -0.1 | [10] 0.012 | [11] -0.037 | [13] 0.01 | [14] -0.138 | [15] -0.056 | [16] -0.039 | [17] -0.021 | [18] -0.074 | [19] 0.001

MAGEA8 (UniProt P43361)
inactive: [1] -0.096 | [2] -0.386 | [20] -0.075 | [5] 0.252 | [6] -0.003 | [8] 0.038 | [9] -0.07 | [10] -0.006 | [13] 0.101 | [14] 0.123 | [15] -0.267 | [16] -0.012 | [17] -0.092 | [18] 0.038 | [19] -0.038

MARK2 (UniProt E9PC69)
active: [14] -1.12
inactive: [1] 0.044 | [2] -0.469 | [20] 0.086 | [3] 0.023 | [6] -0.028 | [8] 0.187 | [10] -0.103 | [11] -0.555 | [13] 0.278 | [15] -0.07 | [16] 0.187 | [17] 0.037 | [18] 0.144 | [19] -0.028

MAFF (UniProt Q9ULX9)
inactive: [1] 0.099 | [20] -0.007 | [5] 0.118 | [6] -0.171 | [7] 0.067 | [8] 0.014 | [9] 0.12 | [10] 0.069 | [11] 0 | [15] 0.099 | [16] 0.027 | [17] -0.051 | [18] 0.019 | [19] 0.124

MAP4K4 isoform 6 (UniProt O95819)
inactive: [1] -0.241 | [20] 0.109 | [6] -0.083 | [8] 0.261 | [10] -0.108 | [13] -0.016 | [15] -0.012 | [16] 0.067 | [17] -0.186 | [18] 0.049 | [19] -0.036

LTV1 (UniProt Q96GA3)
inactive: [1] 0.09 | [2] 0.004 | [20] 0.06 | [3] -0.109 | [5] 0.023 | [6] -0.049 | [8] 0.189 | [9] 0.104 | [10] -0.09 | [11] -0.037 | [13] 0.16 | [14] 0.083 | [15] 0.145 | [16] 0.074 | [17] 0.081 | [18] 0.109 | [19] -0.061

MAPK14 (UniProt Q16539)
inactive: [1] -0.065 | [2] -0.516 | [20] -0.067 | [5] 0.03 | [6] 0.052 | [8] -0.231 | [9] -0.03 | [10] 0.261 | [11] 0.001 | [13] 0.074 | [14] 0.546 | [15] -0.137 | [16] -0.02 | [17] -0.03 | [18] 0.684 | [19] -0.055

MARCHF3 (UniProt Q86UD3)
inactive: [1] 0.116 | [2] 0.011 | [20] 0.018 | [3] 0.036 | [11] -0.055 | [16] 0 | [18] 0.097

MAP7D3 (UniProt Q8IWC1)
inactive: [1] 0.047 | [20] 0.003 | [3] -0.288 | [4] -0.007 | [5] 0.03 | [7] -0.102 | [9] 0.06 | [11] 0.006 | [12] 0.241 | [14] -0.04 | [16] 0.108 | [18] 0.069

LTBR (UniProt P36941)
inactive: [1] 0.076 | [2] 0.105 | [3] 0.028 | [4] -0.189 | [5] 0.002 | [6] -0.111 | [7] -0.151 | [8] 0.02 | [9] 0.176 | [10] 0.058 | [11] 0.088 | [12] 0.051 | [13] 0.072 | [14] 0 | [15] 0.082 | [16] -0.261 | [17] 0.057 | [18] 0.002 | [19] 0.01

MAPK8 isoform 3 (UniProt P45983)
active: [14] 0.942
inactive: [1] -0.112 | [2] -0.249 | [20] 0.003 | [3] 0.117 | [5] 0.006 | [6] 0.004 | [8] 0.013 | [9] -0.054 | [10] -0.006 | [11] 0.052 | [13] 0.009 | [15] -0.009 | [16] 0.031 | [17] -0.07 | [18] 0.029 | [19] -0.029

MAP4K2 (UniProt Q12851)
inactive: [1] -0.044 | [2] -0.093 | [20] 0.298 | [11] -0.184 | [13] 0.076 | [16] -0.003 | [18] 0.066

MAGEB10 (UniProt Q96LZ2)
inactive: [1] -0.074 | [20] 0.101 | [6] -0.08 | [8] 0.519 | [10] -0.062 | [12] 0.151 | [13] -0.035 | [15] 0.217 | [16] -0.066 | [17] 0.118 | [18] 0.004 | [19] 0.08
